Binding data for two substances are collected here from article PMC5105669.

By UniProt entry, the sequences of proteins in these tests, tags left out. Residues count along the entry.
UniProt P68331, residues 31-338: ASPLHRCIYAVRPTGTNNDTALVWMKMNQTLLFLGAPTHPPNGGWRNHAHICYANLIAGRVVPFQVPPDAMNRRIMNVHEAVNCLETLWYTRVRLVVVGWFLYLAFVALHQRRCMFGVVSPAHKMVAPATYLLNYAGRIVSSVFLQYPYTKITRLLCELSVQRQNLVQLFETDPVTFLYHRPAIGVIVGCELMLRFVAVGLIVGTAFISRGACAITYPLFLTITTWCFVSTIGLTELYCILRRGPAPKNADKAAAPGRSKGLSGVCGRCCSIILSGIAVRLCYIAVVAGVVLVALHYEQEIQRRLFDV
UniProt P10204: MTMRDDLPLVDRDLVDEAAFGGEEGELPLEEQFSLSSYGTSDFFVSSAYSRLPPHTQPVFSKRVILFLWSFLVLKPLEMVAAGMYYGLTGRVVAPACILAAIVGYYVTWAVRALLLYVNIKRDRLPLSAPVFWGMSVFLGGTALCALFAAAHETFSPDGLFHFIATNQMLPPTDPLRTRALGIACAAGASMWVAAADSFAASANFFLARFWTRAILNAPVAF
UniProt P10221: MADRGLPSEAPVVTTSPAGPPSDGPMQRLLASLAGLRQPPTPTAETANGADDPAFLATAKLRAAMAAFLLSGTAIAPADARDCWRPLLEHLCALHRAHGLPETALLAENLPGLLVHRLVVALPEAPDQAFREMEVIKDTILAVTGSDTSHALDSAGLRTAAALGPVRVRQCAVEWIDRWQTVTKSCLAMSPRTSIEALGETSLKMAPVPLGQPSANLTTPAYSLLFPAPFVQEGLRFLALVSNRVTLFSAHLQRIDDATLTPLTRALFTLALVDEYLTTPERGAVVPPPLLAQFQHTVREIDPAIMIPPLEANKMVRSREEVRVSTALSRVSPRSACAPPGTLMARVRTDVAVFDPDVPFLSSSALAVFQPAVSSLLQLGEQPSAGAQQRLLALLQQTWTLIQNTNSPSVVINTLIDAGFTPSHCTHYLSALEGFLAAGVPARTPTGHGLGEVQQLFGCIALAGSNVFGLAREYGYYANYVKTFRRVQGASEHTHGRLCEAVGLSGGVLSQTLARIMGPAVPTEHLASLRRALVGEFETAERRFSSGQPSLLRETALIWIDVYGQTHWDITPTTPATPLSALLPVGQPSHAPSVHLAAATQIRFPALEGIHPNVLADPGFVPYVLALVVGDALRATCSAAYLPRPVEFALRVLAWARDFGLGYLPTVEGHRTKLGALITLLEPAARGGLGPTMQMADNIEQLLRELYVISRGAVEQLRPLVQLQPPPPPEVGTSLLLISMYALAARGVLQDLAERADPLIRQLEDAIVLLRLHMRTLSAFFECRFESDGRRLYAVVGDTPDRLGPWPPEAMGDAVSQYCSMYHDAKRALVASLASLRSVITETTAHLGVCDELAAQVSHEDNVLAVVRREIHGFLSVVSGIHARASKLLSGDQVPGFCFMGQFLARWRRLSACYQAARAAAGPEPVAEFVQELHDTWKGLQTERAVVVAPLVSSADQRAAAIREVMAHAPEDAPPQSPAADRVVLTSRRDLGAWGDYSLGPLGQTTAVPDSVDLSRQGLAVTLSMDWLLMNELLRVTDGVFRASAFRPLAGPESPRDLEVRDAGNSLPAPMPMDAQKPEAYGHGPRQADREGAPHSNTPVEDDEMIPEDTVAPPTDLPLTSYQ

These are yes or no findings as the source states them, for the method shown. Binding seen in cells or lysates may run through a third protein. Some results given as binding are weak or reduced against the parent protein; the word gives no strength.

This test has as its target HSV-1 glycoprotein K tagged with a V5 epitope (herpes simplex virus 1 (strain F)) (UniProt P68331). The test is described as follows: co-IP; anti-V5 (gK) antibody on protein G magnetic Dynabeads; NP-40 lysates of Vero cells infected with VC1, DC474-480 or HSV-1(F) at MOI 2, 24 hpi; 10 min at room temperature, washed three times with PBS; immunoblot with anti-V5, anti-FLAG, anti-UL37 and anti-VP5. Background: In western blotting, separated proteins are transferred to a membrane and probed.

“HSV-1 UL20 protein tagged with a 3×FLAG epitope (from UniProt P10204 1-222)”: the binding result is on record as “binds”. Take “HSV-1 UL37 protein (wild type, from VC1 virus) (from UniProt P10221 1-1123)”: the binding result is reported as “binds”.
